Measurements reported in PubChem BioAssay AID504793 (Drosophila RNAi Screening Center, 2011)
The deposit covers about 23,000 reagents; below is a random part of those that have a named target and a result. In the full data, 62 (0.27%) got an active call. 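Calls come from follow-up tests whose scores are not deposited, so confirmed genes may have low counts here; counts are not normalised per plate.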 The raw values are shown without normalisation. Entries without a mark were called inactive. Names joined by + are all predicted targets of the reagent.

- Assay: 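Knock-downs allowing continued mitosis even though DNA is damaged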 (primary screen)
- System: Drosophila S2R+ cells
- Knock-down reagent: long dsRNA against Drosophila genes, about 0.25 µg dsRNA per well
- Time to read-out: 4 days of dsRNA, then 4 hours of drug before read-out
- Challenge: doxorubicin 0.5 µM for 4 hours to cause double-strand breaks, in cells also given a low, harmless dose of dsRNA against nbs to sensitise the assay
- Read-out: 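Per-well count of mitotic cells stained for phospho-histone H3 after doxorubicin exposure, used as mitotic index; counts are raw and not normalised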
- Scale: mitotic cells: higher = more cells in mitosis, weaker G2 arrest
- Hit rule: 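a call needs confirmation in secondary tests, with other dsRNAs and a check of mitotic timing without damage, not just a high primary count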
- Meaning of the calls: active = confirmed in follow-up tests; inactive = not confirmed

The first 4 records, ahead of the listing:
target | PubChem SID | mitotic cells, replicate 1 | mitotic cells, replicate 2
CG31089 | SID104195726 | 9 | –
CG32485 | SID104202063 | 15 | –
GatC + PolG2 | SID104183104 | 4 | –
fbp (fructose-1,6-bisphosphatase) | SID104181869 | 5 | –

Results, from the first entry:
target | PubChem SID | mitotic cells, replicate 1 | mitotic cells, replicate 2
CG31089 | SID104195726 | 9 | –
CG32485 | SID104202063 | 15 | –
GatC + PolG2 | SID104183104 | 4 | –
fbp (fructose-1,6-bisphosphatase) | SID104181869 | 5 | –
CG3663 | SID104184194 | 2 | –
CG3663 | SID104205551 | 6 | –
vers (versatile) | SID104202589 | 5 | –
CG17751 | SID104195053 | 11 | –
CG17751 | SID104202196 | 3 | –
CG17751 | SID104203230 | 3 | –
Mvd (Mevalonate diphosphate decarboxylase) | SID104199888 | 7 | –
CG13965 | SID104182099 | 2 | –
CG32432 | SID104191536 | 3 | –
PIG-X (Phosphatidylinositol glycan anchor biosynthesis class X) | SID104202101 | 11 | –
RhoGAP18B (Rho GTPase activating protein at 18B) | SID104199555 | 15 | –
RhoGAP18B (Rho GTPase activating protein at 18B) | SID104199839 | 4 | –
RhoGAP18B (Rho GTPase activating protein at 18B) | SID104199840 | 3 | –
RhoGAP18B (Rho GTPase activating protein at 18B) | SID104199841 | 6 | –
RhoGAP18B (Rho GTPase activating protein at 18B) | SID104203639 | 10 | –
Ipp (Inositol polyphosphate 1-phosphatase) | SID104196510 | 2 | –
Ipp (Inositol polyphosphate 1-phosphatase) | SID104204602 | 9 | –
CG10257 | SID104185777 | 9 | –
CG13251 | SID104191491 | 6 | –
CG13251 | SID104205929 | 12 | –
ImpE3 (Ecdysone-inducible gene E3) | SID104196508 | 4 | –
CG5674 | SID104202533 | 8 | –
CG5674 | SID104206864 | 1 | –
CG14632 (retired record) | SID104197734 | 13 | –
CG14632 (retired record) | SID104204389 | 3 | –
Arf4 (ADP ribosylation factor 4) | SID104196987 | 26 | –
Arf4 (ADP ribosylation factor 4) | SID104207840 | 11 | –
CG11367 | SID104201905 | 15 | –
Cndp2 (Cytosolic non-specific dipeptidase 2) | SID104184665 | 4 | –
CG5556 | SID104180479 | 3 | –
ort (ora transientless) | SID104196032 | 8 | –
Mccc1 (Methylcrotonoyl-CoA carboxylase 1) | SID104195209 | 9 | –
Mccc1 (Methylcrotonoyl-CoA carboxylase 1) | SID104206035 | 6 | –
CG4911 | SID104190248 | 10 | –
unc-5 | SID104185337 | 6 | 5
unc-5 | SID104187503 | 5 | –
unc-5 | SID104187504 | 3 | –
CG4734 | SID104186677 | 11 | –
CG4734 | SID104201646 | 8 | –
RpL14 (Ribosomal protein L14) | SID104191061 | 8 | –
Amun | SID104199639 | 10 | –
Amun | SID104206602 | 5 | –
